Source: PubChem BioAssay AID1259314 (Drosophila RNAi Screening Center, 2017)
Shown is one part, drawn at random, of about 3,100 reagents. Over the whole deposit, 289 (9.3%) are marked active. 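Active includes both higher and lower ATP than plate average; check the z-score sign for direction.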 A plus sign joins genes that one reagent is predicted to hit. Not stated in the record: the amount of reagent.

Aim: 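Genes whose knock-down alters cell survival under toxic manganese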 (primary screen)
Cells: Drosophila S2R+ cells
Knock-down reagent: long dsRNA against Drosophila genes
Timing: 5 days (4 days knock-down, then 1 day metal exposure)
Challenge: manganese chloride added to 15 mM for 24 hours
Read-out: 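Luciferase ATP signal used as a proxy for viable cell number, reported as one averaged z-score per dsRNA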
Reading the numbers: mean ATP z-score: higher = more ATP than the plate average, more viable cells under manganese
Rule for the call: 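a mean ATP z-score past 1.5 in either direction is called active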
Meaning of the calls: active = strong ATP change, up or down; inactive = no strong ATP change

For CG14777 [DRSC18563], how do the results read?
mean ATP z-score: 0.584; outcome: inactive

How did the screen score SppL (Signal peptide peptidase-like) [DRSC15228]?
mean ATP z-score: -0.0159; outcome: inactive

What is on record for CG43066 [DRSC06927]?
mean ATP z-score: -0.395; outcome: inactive

For CG43066 [DRSC26570], what does the deposit list?
mean ATP z-score: 2.28; outcome: active

With Ntl (Neurotransmitter transporter-like) [DRSC03003], what was measured?
mean ATP z-score: 0.334; outcome: inactive

With Ntl (Neurotransmitter transporter-like) [DRSC28007], what was measured?
mean ATP z-score: 1.3; outcome: inactive

What did the screen give for ccb (central complex broad) [DRSC20501]?
mean ATP z-score: -0.0524; outcome: inactive

What is on record for ppk26 (pickpocket 26) [DRSC10991]?
mean ATP z-score: -0.712; outcome: inactive

What is on record for ppk26 (pickpocket 26) [DRSC25876]?
mean ATP z-score: -0.494; outcome: inactive

With GC2 [DRSC14476], how do the results read?
mean ATP z-score: -0.302; outcome: inactive

Which result is listed for GC2 [DRSC27370]?
mean ATP z-score: -0.749; outcome: inactive

Which result is listed for Tsp42El (Tetraspanin 42El) [DRSC06186]?
mean ATP z-score: 0.999; outcome: inactive

How did the screen score Irk1 (Inwardly rectifying potassium channel 1) [DRSC16106]?
mean ATP z-score: -0.637; outcome: inactive

How did the screen score CG31262 [DRSC13216]?
mean ATP z-score: -0.359; outcome: inactive

With CG31262 [DRSC39797], how do the results read?
mean ATP z-score: -0.304; outcome: inactive

With Pex3 (Peroxin 3) [DRSC10731], what does the deposit list?
mean ATP z-score: -1.18; outcome: inactive

What did the screen give for Rh6 (Rhodopsin 6) [DRSC16823]?
mean ATP z-score: -0.574; outcome: inactive

For Rh6 (Rhodopsin 6) [DRSC26166], what does the deposit list?
mean ATP z-score: -0.809; outcome: inactive

With Tsp74F (Tetraspanin 74F) [DRSC10508], what was measured?
mean ATP z-score: -0.745; outcome: inactive

For OtopLa (Otopetrin-like a) [DRSC23226], what does the deposit list?
mean ATP z-score: 0.325; outcome: inactive

For OtopLa (Otopetrin-like a) [DRSC29861], how do the results read?
mean ATP z-score: 0.12; outcome: inactive

What is on record for Ca-alpha1D (Ca[2+]-channel protein alpha[[1]] subunit D) [DRSC03284]?
mean ATP z-score: -0.29; outcome: inactive

For Ca-alpha1D (Ca[2+]-channel protein alpha[[1]] subunit D) [DRSC39679], how do the results read?
mean ATP z-score: -0.106; outcome: inactive

For kkv (krotzkopf verkehrt) [DRSC12315], what does the deposit list?
mean ATP z-score: -0.511; outcome: inactive

With mthl15 (methuselah-like 15) [DRSC01120], what was measured?
mean ATP z-score: -0.265; outcome: inactive

How did the screen score mthl15 (methuselah-like 15) [DRSC39743]?
mean ATP z-score: 0.971; outcome: inactive

For nAChRbeta3 (nicotinic Acetylcholine Receptor beta3) [DRSC00325], how do the results read?
mean ATP z-score: -0.76; outcome: inactive

How did the screen score Syb (Synaptobrevin) [DRSC07559]?
mean ATP z-score: -1.41; outcome: inactive

How did the screen score Syb (Synaptobrevin) [DRSC25904]?
mean ATP z-score: 0.312; outcome: inactive

With Ptp69D (Protein tyrosine phosphatase 69D) [DRSC11258], what was measured?
mean ATP z-score: -1.03; outcome: inactive

With Ptp69D (Protein tyrosine phosphatase 69D) [DRSC36691], how do the results read?
mean ATP z-score: -0.249; outcome: inactive

What did the screen give for Ptp69D (Protein tyrosine phosphatase 69D) [DRSC36692]?
mean ATP z-score: -0.379; outcome: inactive

Which result is listed for Rh3 (Rhodopsin 3) [DRSC16822]?
mean ATP z-score: 0.307; outcome: inactive

Which result is listed for Osi19 (Osiris 19) [DRSC12569]?
mean ATP z-score: 0.307; outcome: inactive

With Spp (Signal peptide peptidase) [DRSC00328], what was measured?
mean ATP z-score: 0.266; outcome: inactive

With CG13907 [DRSC08377], what does the deposit list?
mean ATP z-score: -1.47; outcome: inactive

How did the screen score CG13907 [DRSC25983]?
mean ATP z-score: -0.455; outcome: inactive

How did the screen score mthl8 (methuselah-like 8) [DRSC08211]?
mean ATP z-score: 2.75; outcome: active

What did the screen give for mthl8 (methuselah-like 8) [DRSC08311]?
mean ATP z-score: 2.01; outcome: active

What is on record for fng (fringe) [DRSC11887]?
mean ATP z-score: -0.587; outcome: inactive

With fng (fringe) [DRSC21935], what does the deposit list?
mean ATP z-score: 0.449; outcome: inactive

With Osi4 (Osiris 4) [DRSC12134], how do the results read?
mean ATP z-score: -0.543; outcome: inactive

Which result is listed for Osi4 (Osiris 4) [DRSC39716]?
mean ATP z-score: 0.0128; outcome: inactive

For Inx7 + cm [DRSC18753], what was measured?
mean ATP z-score: 0.00261; outcome: inactive

With NaPi-T (Na[+]-dependent inorganic phosphate cotransporter) [DRSC07476], what does the deposit list?
mean ATP z-score: 0.149; outcome: inactive

What is on record for NaPi-T (Na[+]-dependent inorganic phosphate cotransporter) [DRSC24468]?
mean ATP z-score: -0.769; outcome: inactive

For plh (pasang lhamu) [DRSC12294], what does the deposit list?
mean ATP z-score: 0.766; outcome: inactive

Records above marked active, once more:
CG43066 [DRSC26570] — mean ATP z-score: 2.28; outcome: active
mthl8 (methuselah-like 8) [DRSC08211] — mean ATP z-score: 2.75; outcome: active
mthl8 (methuselah-like 8) [DRSC08311] — mean ATP z-score: 2.01; outcome: active
